Laboratory results from PubChem BioAssay AID1671190 (National Center for Advancing Translational Sciences (NCATS), 2021).
Values joined by “and” are separate entries in the source; they are usually repeats but may differ in a detail not shown here. Equal entries are not always repeated. The whole screen tested about 580,000 compounds, of which about 6,100 (1.1%) were called active. Inconclusive means that the source gave no clear call. Such entries were picked first, then a sample of the others. The call rests on the fitted dose curve; in most records, active means well fitted inhibition curve with a large enough effect; inconclusive means small, poorly fitted or top-dose-only effect, or another doubt; inactive means no such curve, though single readings can be large or run the other way. Where the call is inconclusive, the potency comes from a doubtful curve fit.

The chains behind the UniProt entries cited, without tags or fusion partners. Where a name states a change or a piece, a line headed by the entry shows the natural chain unless it says otherwise.
UniProt P18054: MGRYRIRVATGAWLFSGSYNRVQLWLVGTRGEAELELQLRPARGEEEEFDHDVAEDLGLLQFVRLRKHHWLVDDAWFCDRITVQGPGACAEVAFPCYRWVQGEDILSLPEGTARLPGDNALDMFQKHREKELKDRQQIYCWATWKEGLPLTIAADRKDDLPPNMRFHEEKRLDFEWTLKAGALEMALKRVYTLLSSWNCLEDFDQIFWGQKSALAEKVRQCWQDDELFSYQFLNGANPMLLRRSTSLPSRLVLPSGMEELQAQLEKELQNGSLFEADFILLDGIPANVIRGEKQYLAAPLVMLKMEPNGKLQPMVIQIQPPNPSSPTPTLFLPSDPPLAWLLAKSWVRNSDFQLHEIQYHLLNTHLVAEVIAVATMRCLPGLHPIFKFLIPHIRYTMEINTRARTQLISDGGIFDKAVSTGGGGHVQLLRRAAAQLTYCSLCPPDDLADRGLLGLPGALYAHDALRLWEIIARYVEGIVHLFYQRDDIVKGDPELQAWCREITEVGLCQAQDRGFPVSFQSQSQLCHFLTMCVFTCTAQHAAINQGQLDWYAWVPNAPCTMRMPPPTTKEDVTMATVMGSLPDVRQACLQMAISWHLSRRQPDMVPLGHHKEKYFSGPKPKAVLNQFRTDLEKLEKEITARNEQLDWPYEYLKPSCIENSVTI

Target: Polyunsaturated fatty acid lipoxygenase ALOX12 (Homo sapiens) (UniProt P18054)
Test: Primary qHTS assay for inhibitors of human arachidonate 12S-lipoxygenase (ALOX12): Round 2
Conditions: purified 12hLO, xylenol orange hydroperoxide absorbance; activity change, negative = inhibition: at 108 µM (top of the series) unless noted
Procedure, shortened: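 Hydroperoxide product was detected by ferrous iron/xylenol orange as the 573 to 405 nm absorbance ratio. Arachidonic acid at 40 uM (final) was turned over for 30 min at room temperature by 150 nM human 12hLO, pH 7.0 Hepes buffer, after 15 min compound preincubation.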
On the % scale 0 is the no-effect control and ±100 the full control effect; potency means the concentration at half of the fitted maximal effect.

SMILES | Potency | activity change, negative = inhibition
O=C(CCCCCCC(=O)Nc1ccccc1)NO | inconclusive: 4.05 µM [inhibitor, partial curve] and inconclusive: 193 nM [inhibitor, full curve, poor fit] | 
COc1ccc(-n2nc3ccc(NC(=O)c4ccc(-c5cc(Cl)ccc5Cl)o4)cc3n2)cc1 | inactive | 
CC1(C(=O)OCC(=O)c2ccc3ccccc3c2)CC1(Cl)Cl (stereo unspecified) | inactive | 
O=S(=O)(/C=C/c1ccccc1)Nc1ccc(Sc2nncs2)cc1 | inactive | 
O=C(NCc1ccco1)c1cc2nc(-c3ccc4c(c3)OCO4)cc(C(F)(F)F)n2n1 | inactive | 
COc1cccc(OCCCOc2ccc(Cl)cc2/C=N/NC(N)=O)c1 | inactive | 
COC(=O)c1ccc(COc2cccc3ccccc23)o1 | inconclusive: 44.7 µM [inhibitor, partial curve] | 
CCc1ccc(C(=O)CN2C(=O)NC3(CCCCCC3)C2=O)cc1 | inconclusive: 89.1 µM [inhibitor, single point] | 
COc1ccc(S(=O)(=O)Nc2ccc(S(=O)(=O)Nc3cc(C)nc(C)n3)cc2)cc1OC | inconclusive: 39.8 µM [inhibitor, partial curve, poor fit] | 
COC(=O)c1sccc1-n1cc2c(c1-c1ccccc1)c(=O)n(C)c(=O)n2C | inactive | 
O=C(Cc1cccc2ccccc12)NN=Cc1ccc2c(c1)CCC2 | inconclusive: 44.7 µM [inhibitor, partial curve, poor fit] | 
CC1=C[C@@H](CNC(=O)CC(C)(C)CC(=O)O)[C@H](C(C)C)C[C@H]1Cc1nc2ccncc2[nH]1 | inconclusive: 11.2 µM [inhibitor, partial curve, poor fit] | 
Cc1ccc(NC(=S)Nc2cccc3ccccc23)cc1F | active: 39.8 µM | 
COc1ccc(Cl)cc1NC(=O)c1ccc2nc(Cc3ccccc3)oc2c1 | inconclusive: 126 µM [inhibitor, partial curve, poor fit] | 
COc1ccc(CN2C(=O)c3ccc(C(=O)O)cc3C2=O)cc1 | inconclusive: 2.24 µM [inhibitor, partial curve, poor fit] | 
Cc1c(C(c2ccc(C(=O)O)cc2)c2c(C)n(C)n(-c3ccccc3)c2=O)c(=O)n(-c2ccccc2)n1C | inconclusive: 20 µM [inhibitor, partial curve, poor fit] | 
Cc1ccc(NC(=O)c2cc(S(=O)(=O)NCCC3=CCCCC3)ccc2F)cc1F | inconclusive: 70.8 µM [inhibitor, single point] | 
CCC1CCCCN1C(=O)CSc1nc2ncccc2[nH]1 (stereo unspecified) | inactive | 
O=C1N/C(=N\c2ccccn2)SC1Cc1ccccc1Cl (stereo unspecified) | inconclusive: 6.31 µM [inhibitor, partial curve, poor fit] | 
CCCS(=O)(=O)n1nc(-c2ccc(Br)cc2)cc1N | inconclusive: 79.4 µM [inhibitor, single point] | 
Cc1ncc2c(c1CNC(=O)c1cccc(OC(F)F)c1)CCNC2 | inconclusive: 11.2 µM [inhibitor, full curve, poor fit] | 
O=C1CCCC/C1=N\Nc1ccc(OCc2ccccc2)cc1 | inconclusive: 44.7 µM [inhibitor, partial curve, poor fit] | 

SMILES | Potency | activity change, negative = inhibition
Cc1ccsc1C(=O)N1CCCN(C)c2ccccc21 | inactive | 
CCOc1ccc(CC(=O)NCc2ccc3c(c2)cc(C)n3C)cc1 | inconclusive: 35.5 µM [inhibitor, partial curve, poor fit] | 
Cc1ccc(Cl)cc1N1CCN(C(=O)C2CCN(S(=O)(=O)c3c(C)nn(C)c3C)CC2)CC1 | inactive | 
O=C(c1cccn(Cc2ccc(Cl)c(Cl)c2)c1=O)N1CCOCC1 | inactive | 
CN1CCCN(C(=O)c2ccc(Cl)c(S(=O)(=O)N(C)c3ccccc3)c2)CC1 | inactive | 
CCc1cc2c(SCC#N)ncnc2s1 | inactive | 
O=C(c1ccccc1F)N1CCN(c2ccc([N+](=O)[O-])c(NCc3cccnc3)c2)CC1 | inconclusive: 89.1 µM [inhibitor, partial curve, poor fit] | 
CC(C)(C)C(=O)Nc1ccccc1C(=O)NCc1ccco1 | inactive | 
CC1CCc2sc(NC(=O)c3ccc(N4C(=O)CCC4=O)cc3)c(C(N)=O)c2C1 (stereo unspecified) | inconclusive: 56.2 µM [inhibitor, partial curve, poor fit] | 
CCn1c(=O)c(CCC(=O)NCC2CCCO2)c(C)c2c(C)nn(-c3ccccc3)c21 (stereo unspecified) | inactive | 
COc1ccc(C(C(=O)Nc2ccc3c(c2)OCCO3)n2c(=O)c(-c3ccco3)nc3ccccc32)cc1 (stereo unspecified) | inconclusive: 39.8 µM [inhibitor, partial curve] | 
O=C(NCCNC(=O)c1cc2ccccc2[nH]1)c1ccccn1 | inconclusive: 35.5 µM [inhibitor, single point] | 
COC(=O)CCCNC(=O)c1ccccc1CSc1nc2ccccc2o1 | inconclusive: 126 µM [inhibitor, single point] | 
COc1ccc(/C(O)=C2/C(=O)C(=O)N(CCN3CCOCC3)C2c2ccc(C)cc2)cc1 (stereo unspecified) | inactive | 
CS(=O)(=O)N(C1CC1)C1CCOC2(CCN(C(=O)Cc3cccc(F)c3)CC2)C1 (stereo unspecified) | inactive | 
Cc1cccc(N2CCN(C(=O)CCN3C(=S)NC(C)(C)CC3C)CC2)c1C (stereo unspecified) | inconclusive: 15.8 µM [inhibitor, partial curve, poor fit] | 
O=C(CCN1CCN(C(c2ccccc2)c2ccccc2)CC1)N/N=C/c1ccc(O)cc1O | inconclusive: 39.8 µM [inhibitor, partial curve, poor fit] | 
O=C(/C=C/c1cc(Br)ccc1F)OC1CCCCC1=O (stereo unspecified) | inconclusive: 22.4 µM [inhibitor, partial curve, poor fit] | 
Cc1cc(=O)oc2cc(NC(=O)c3c(Cl)cnn3C)ccc12 | inconclusive: 50.1 µM [inhibitor, partial curve, poor fit] | 
COc1cc2c(cc1OC)CN(C(=O)/C=C/c1ccccc1[N+](=O)[O-])CC2 | inconclusive: 63.1 µM [inhibitor, partial curve, poor fit] | 
Cc1ccc(NC(=O)NCc2nc(-c3cccc(Cl)c3)oc2C)cc1 | inactive | 
CCOC(=O)C1=C(CSc2nccn2C)NC(=O)NC1c1ccc2c(c1)OCO2 (stereo unspecified) | inconclusive: 50.1 µM [inhibitor, partial curve, poor fit] | 

SMILES | Potency | activity change, negative = inhibition
CN1CCN(c2ccnc(-c3ccoc3)n2)CC1 | active: 22.4 µM | 
COc1ccc(NS(=O)(=O)c2ccc(C(=O)N3CCN(Cc4ccccc4)CC3)cc2)cc1 | inactive | 
Cc1ccccc1CNC(=O)CCNS(=O)(=O)c1c(C)[nH]c(C)c1C(=O)N1CCCCC1 |  | inconclusive: -31% [inhibitor]
COc1ccc(-c2cc(NC=O)c3ncc(-c4cccc(C(C)=O)c4)n3c2)cc1 | inconclusive: 44.7 µM [inhibitor, partial curve, poor fit] | 
CCOc1ccc(/C=c2\sc3nc(-c4ccco4)nn3c2=O)cc1OCC | inconclusive: 5.62 µM [inhibitor, partial curve, poor fit] | 
Cc1cccc(NC(=O)c2cc3cc(Br)ccc3oc2=O)c1 | inconclusive: 89.1 µM [inhibitor, partial curve, poor fit] | 
Cc1ccc(OCc2cc(C(=O)NCCn3cccn3)no2)cc1C | inconclusive: 5.62 µM [inhibitor, partial curve, poor fit] | 
CCN(CC)C(=O)c1cc2c(s1)CCC(C(=O)Nc1ccc(OC)c(F)c1)C2 (stereo unspecified) | inactive | 
COc1cc(Cl)cn2c(-c3cccc(NC4CNC4)n3)cnc12 | inconclusive: 38.5 µM [inhibitor, single point] | 
COc1ccc(OCC2(C)COc3ccc(C(=O)NCCN4CCOCC4)cc3N2)cc1 (stereo unspecified) | inconclusive: 70.8 µM [inhibitor, partial curve, poor fit] | 
Cc1nc2ccccc2nc1COC(=O)c1cccnc1 | inconclusive: 50.1 µM [inhibitor, partial curve, poor fit] | 
COc1ccc([C@H]2CC(=O)C[C@@H](CCn3cc(-c4cccnc4)nn3)O2)cc1 | inactive | 
Nc1ccn([C@@H]2O[C@H](CO)[C@@H](O)C2O)c(=O)n1 (stereo partly specified) | inconclusive: 17.2 µM [inhibitor, partial curve, poor fit] | 
Cc1nn(CC(O)COc2cccc(Br)c2)c(=O)c2ccccc12 (stereo unspecified) | inconclusive: 20 µM [inhibitor, full curve, poor fit] | 
CCOC(=O)c1cccc(NC(=O)c2oc3c(c2C)-c2[nH]ncc2CC3)c1 | inconclusive: 31.6 µM [inhibitor, partial curve, poor fit] | 
NC(=O)CSc1nnc(-c2ccco2)n1-c1ccccc1 | inconclusive: 141 µM [inhibitor, single point] | 
CC(C)CCN1CCCC2(CC(c3cccc(C(F)(F)F)c3)=NO2)C1 (stereo unspecified) | inactive | 
CC1CN(CCOc2cccc(Oc3ccccc3)c2)CC(C)O1 (stereo unspecified) | inconclusive: 0.112 µM [inhibitor, full curve, poor fit] | 
CCc1ccccc1NS(=O)(=O)c1ccc2[nH]cc(C(=O)N3CCCCC3)c(=O)c2c1 | inconclusive: 50.1 µM [inhibitor, partial curve, poor fit] | 
CCOc1ccc(NC(=O)C(=O)NCCc2csc(-c3ccc(F)cc3)n2)cc1 | inconclusive: 126 µM [inhibitor, single point] | 
COc1ccc(NC(=O)OCCN2CCN(Cc3ccccc3)CCC2=O)cc1 | inactive | 
C=C[C@H](CC(C)C)N(Cc1ccccc1)S(=O)(=O)N(Cc1ccccc1)[C@@H](C=C)CC(C)C | inconclusive: 141 µM [inhibitor, single point] | 

No new results follow: an excerpt of the list.
SMILES | Potency | activity change, negative = inhibition
COc1ccc(NS(=O)(=O)c2ccc(C(=O)N3CCN(Cc4ccccc4)CC3)cc2)cc1 | inactive | 
Cc1ccccc1CNC(=O)CCNS(=O)(=O)c1c(C)[nH]c(C)c1C(=O)N1CCCCC1 |  | inconclusive: -31% [inhibitor]
COc1ccc(-c2cc(NC=O)c3ncc(-c4cccc(C(C)=O)c4)n3c2)cc1 | inconclusive: 44.7 µM [inhibitor, partial curve, poor fit] | 
CCOc1ccc(/C=c2\sc3nc(-c4ccco4)nn3c2=O)cc1OCC | inconclusive: 5.62 µM [inhibitor, partial curve, poor fit] | 
Cc1cccc(NC(=O)c2cc3cc(Br)ccc3oc2=O)c1 | inconclusive: 89.1 µM [inhibitor, partial curve, poor fit] | 
Cc1ccc(OCc2cc(C(=O)NCCn3cccn3)no2)cc1C | inconclusive: 5.62 µM [inhibitor, partial curve, poor fit] | 
CCN(CC)C(=O)c1cc2c(s1)CCC(C(=O)Nc1ccc(OC)c(F)c1)C2 (stereo unspecified) | inactive | 
COc1cc(Cl)cn2c(-c3cccc(NC4CNC4)n3)cnc12 | inconclusive: 38.5 µM [inhibitor, single point] | 
COc1ccc(OCC2(C)COc3ccc(C(=O)NCCN4CCOCC4)cc3N2)cc1 (stereo unspecified) | inconclusive: 70.8 µM [inhibitor, partial curve, poor fit] | 
Cc1nc2ccccc2nc1COC(=O)c1cccnc1 | inconclusive: 50.1 µM [inhibitor, partial curve, poor fit] | 
COc1ccc([C@H]2CC(=O)C[C@@H](CCn3cc(-c4cccnc4)nn3)O2)cc1 | inactive | 
Nc1ccn([C@@H]2O[C@H](CO)[C@@H](O)C2O)c(=O)n1 (stereo partly specified) | inconclusive: 17.2 µM [inhibitor, partial curve, poor fit] | 
Cc1nn(CC(O)COc2cccc(Br)c2)c(=O)c2ccccc12 (stereo unspecified) | inconclusive: 20 µM [inhibitor, full curve, poor fit] | 
CCOC(=O)c1cccc(NC(=O)c2oc3c(c2C)-c2[nH]ncc2CC3)c1 | inconclusive: 31.6 µM [inhibitor, partial curve, poor fit] | 
NC(=O)CSc1nnc(-c2ccco2)n1-c1ccccc1 | inconclusive: 141 µM [inhibitor, single point] | 
CC(C)CCN1CCCC2(CC(c3cccc(C(F)(F)F)c3)=NO2)C1 (stereo unspecified) | inactive | 
CC1CN(CCOc2cccc(Oc3ccccc3)c2)CC(C)O1 (stereo unspecified) | inconclusive: 0.112 µM [inhibitor, full curve, poor fit] | 
CCc1ccccc1NS(=O)(=O)c1ccc2[nH]cc(C(=O)N3CCCCC3)c(=O)c2c1 | inconclusive: 50.1 µM [inhibitor, partial curve, poor fit] | 
CCOc1ccc(NC(=O)C(=O)NCCc2csc(-c3ccc(F)cc3)n2)cc1 | inconclusive: 126 µM [inhibitor, single point] | 
COc1ccc(NC(=O)OCCN2CCN(Cc3ccccc3)CCC2=O)cc1 | inactive | 
